Results as given in publication PMC5805371.
No constants are given. Whether binding was seen depends on the method and setting. Binding seen in cells or lysates may run through a third protein.

Chains of the proteins cited; added tags and fusions are not shown. Lines headed by an entry give the natural chain unless they say otherwise; changes in a name come on top.
UniProt Q92973: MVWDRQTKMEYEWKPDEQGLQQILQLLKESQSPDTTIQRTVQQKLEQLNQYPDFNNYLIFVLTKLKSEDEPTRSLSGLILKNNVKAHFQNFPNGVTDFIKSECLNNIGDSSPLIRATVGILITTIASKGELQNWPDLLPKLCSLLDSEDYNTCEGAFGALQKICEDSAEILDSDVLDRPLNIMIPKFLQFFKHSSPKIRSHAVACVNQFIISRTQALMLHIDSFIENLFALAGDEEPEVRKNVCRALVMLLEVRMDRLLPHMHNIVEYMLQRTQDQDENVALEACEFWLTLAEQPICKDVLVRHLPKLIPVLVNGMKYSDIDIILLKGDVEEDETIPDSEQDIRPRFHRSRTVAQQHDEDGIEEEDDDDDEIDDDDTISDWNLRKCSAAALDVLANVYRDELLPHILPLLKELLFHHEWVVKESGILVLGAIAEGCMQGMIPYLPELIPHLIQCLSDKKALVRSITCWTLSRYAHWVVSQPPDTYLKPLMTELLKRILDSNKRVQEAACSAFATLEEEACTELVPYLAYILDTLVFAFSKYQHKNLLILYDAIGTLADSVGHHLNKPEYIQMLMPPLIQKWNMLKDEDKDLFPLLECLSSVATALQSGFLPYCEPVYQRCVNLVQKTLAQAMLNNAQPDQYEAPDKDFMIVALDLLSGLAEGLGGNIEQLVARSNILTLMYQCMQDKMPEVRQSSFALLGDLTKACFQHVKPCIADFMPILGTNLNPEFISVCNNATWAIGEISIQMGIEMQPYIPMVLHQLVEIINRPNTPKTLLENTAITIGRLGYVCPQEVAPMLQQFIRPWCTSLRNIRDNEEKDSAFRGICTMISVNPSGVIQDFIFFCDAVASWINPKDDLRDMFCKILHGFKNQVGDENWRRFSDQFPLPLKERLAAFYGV
UniProt O15534: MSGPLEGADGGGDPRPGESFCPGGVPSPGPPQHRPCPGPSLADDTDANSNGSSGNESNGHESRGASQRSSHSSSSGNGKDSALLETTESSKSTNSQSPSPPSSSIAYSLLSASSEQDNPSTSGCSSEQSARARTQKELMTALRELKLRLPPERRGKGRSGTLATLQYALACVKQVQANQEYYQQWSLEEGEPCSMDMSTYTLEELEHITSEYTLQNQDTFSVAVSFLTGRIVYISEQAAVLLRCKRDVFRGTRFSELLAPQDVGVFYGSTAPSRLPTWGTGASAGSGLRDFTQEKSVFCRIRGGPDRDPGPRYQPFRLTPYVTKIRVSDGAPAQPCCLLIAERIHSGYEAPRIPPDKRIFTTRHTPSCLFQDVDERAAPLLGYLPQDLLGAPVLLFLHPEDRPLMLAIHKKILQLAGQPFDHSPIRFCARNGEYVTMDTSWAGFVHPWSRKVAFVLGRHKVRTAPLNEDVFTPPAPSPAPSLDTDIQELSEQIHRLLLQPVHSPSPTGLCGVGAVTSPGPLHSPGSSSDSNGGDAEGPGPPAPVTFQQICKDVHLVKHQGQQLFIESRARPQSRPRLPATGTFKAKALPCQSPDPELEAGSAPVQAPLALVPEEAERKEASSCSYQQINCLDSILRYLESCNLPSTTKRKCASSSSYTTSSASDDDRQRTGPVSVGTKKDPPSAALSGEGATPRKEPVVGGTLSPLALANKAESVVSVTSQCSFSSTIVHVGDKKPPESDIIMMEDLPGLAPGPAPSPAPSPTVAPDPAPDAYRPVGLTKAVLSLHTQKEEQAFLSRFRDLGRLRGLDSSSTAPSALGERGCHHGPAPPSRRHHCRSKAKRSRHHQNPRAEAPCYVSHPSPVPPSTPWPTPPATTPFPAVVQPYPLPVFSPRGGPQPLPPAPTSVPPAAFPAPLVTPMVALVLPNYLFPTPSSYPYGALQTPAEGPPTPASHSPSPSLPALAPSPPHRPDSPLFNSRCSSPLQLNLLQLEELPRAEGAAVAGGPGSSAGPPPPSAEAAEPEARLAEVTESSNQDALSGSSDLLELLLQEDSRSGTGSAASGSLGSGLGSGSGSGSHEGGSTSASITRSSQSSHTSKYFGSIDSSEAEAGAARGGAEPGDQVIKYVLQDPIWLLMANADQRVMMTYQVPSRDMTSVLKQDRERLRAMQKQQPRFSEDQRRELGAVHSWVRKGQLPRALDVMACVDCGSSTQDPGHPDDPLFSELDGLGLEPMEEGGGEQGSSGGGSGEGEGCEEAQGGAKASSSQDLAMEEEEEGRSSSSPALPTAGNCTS

Biological target: MYC-tagged TNPO1 (UniProt Q92973)
Assay: co-IP; luciferase-based read-out: HEK293 cells co-expressing PER1/2-Luc and MYC-TNPO1 (anti-MYC IP) or PER1/2-V5 and TNPO1-Luc (anti-V5 IP), lysed in PKB buffer without protease and phosphatase inhibitors, agarose G+ beads, 4°C, washed with ice cold PBS; luminescence counts relative to normal mouse IgG control IPs; also done with 200 μM H2O2 (higher signals for PER1, not PER2)

In the case of “PER1_(PY/Cys_mut)-LUCIFERASE (from UniProt O15534)”, the binding is reported as “no binding”.
